Experimental data from patent publication US8017637B2, “Inhibitors of cdc phosphatases” (Ipsen Pharma S.A.S., priority 2004, dated 2011).
Some entries share one result that the patent states for a list of compounds. At least one compound was matched to its structure with a doubt left.

How the values were obtained:
[1] = molecular target: T1, purified recombinant enzyme Cdc25-C (MBP-Cdc25C) (Homo sapiens, UniProt P30307); assay: Measurement of the phosphatase activity of the purified recombinant enzyme Cdc25C (OMFP dephosphorylation, fluorescence); assay type: biochemical; details: OMFP 500 μM, 4 hours at 30° C.
T1 construct: made in house
T1 sequence (P30307 1-473): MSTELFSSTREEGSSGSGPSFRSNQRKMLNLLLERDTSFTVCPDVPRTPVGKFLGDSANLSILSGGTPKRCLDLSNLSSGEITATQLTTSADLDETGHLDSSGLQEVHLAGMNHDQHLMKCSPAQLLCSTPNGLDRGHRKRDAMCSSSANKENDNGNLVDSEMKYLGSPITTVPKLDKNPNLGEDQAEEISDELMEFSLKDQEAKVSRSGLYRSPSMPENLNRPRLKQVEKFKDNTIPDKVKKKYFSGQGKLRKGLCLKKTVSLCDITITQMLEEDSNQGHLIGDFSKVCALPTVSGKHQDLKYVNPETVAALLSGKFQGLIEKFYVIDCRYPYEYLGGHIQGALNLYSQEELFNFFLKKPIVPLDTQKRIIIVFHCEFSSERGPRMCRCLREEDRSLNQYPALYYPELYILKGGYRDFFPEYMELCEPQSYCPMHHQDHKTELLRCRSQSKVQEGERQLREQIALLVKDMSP
Procedure: i) Measurement of the Phosphatase Activity of the Purified Recombinant Enzyme Cdc25C
The phosphatase activity of the protein MBP-Cdc25C is evaluated by the dephosphorylation of 3-O-methylfluorescein-phosphate (OMFP) to 3-O-methylfluorescein (OMF) with a determination of the fluorescence at 475 nm of the reaction product. This test makes it possible to identify inhibitors of the recombinant enzyme cdc25. The preparation of the fusion protein MBP-Cdc25C is described in the Patent Application PCT WO 01/44467.
The reaction is carried out in 384-well plate format at a final volume of 50 μl. The protein MBP-Cdc25C (prepared as described above) is preserved in the following elution buffer: 20 mM Tris-HCl pH 7.4; 250 mM NaCl; 1 mM EDTA; 1 mM of dithiothreitol (DTT); 10 mM maltose. It is diluted to a concentration of 60 μM in the following reaction buffer: 50 mM Tris-HCl pH 8.2; 50 mM NaCl; 1 mM DTT; 20% glycerol. Measurement of the background noise is carried out with the buffer without the addition of the enzyme. The products are tested at decreasing concentrations starting from 40 μM. […] After 4 hours at 30° C. in a single-use 384-well plate, the fluorescence measured at OD 475 nm is read using a Victor^2 plate reader (EGG-Wallac). The determination of the concentration inhibiting the enzyme reaction by 50% is calculated from three independent experiments. […]

[2] = system: DU-145 lines (human prostate cancer cells); assay: Anti-proliferative activity, WST1 colorimetric test, DU145 cells; assay type: cell-based; details: 96 hours treatment, up to 10 μM, read-out: IC50 on the cell proliferation of the DU-145 lines
Procedure: (§1) ii) Characterization of Anti-Proliferative Activity:
(§2) By way of example, the effect of a treatment by the compounds of the examples described previously on two lines of human Mia-Paca2 and DU145 cells will be studied. The cell lines DU145 (human prostate cancer cells) and Mia-PaCa2 (human pancreatic cancer cells) were acquired from the American Tissue Culture Collection (Rockville, Md., USA). The cells placed in 80 μl of Dulbecco's Modified Eagle medium (Gibco-Brl, Cergy-Pontoise, France) completed with 10% foetal calf serum inactivated by heating (Gibco-Brl, Cergy-Pontoise, France), 50,000 units/l of penicillin and 50 mg/l streptomycin (Gibco-Brl, Cergy-Pontoise, France), and 2 mM of glutamine (Gibco-Brl, Cergy-Pontoise, France) were seeded on a 96-well plate on day 0. The cells were treated on day 1 for 96 hours at increasing concentrations of each of the compounds to be tested up to 10 μM. At the end of the of this period, quantification of the cell proliferation is evaluated by a colorimetric test based on the cleavage of the tetrazolium salt WST1 by the mitochondrial dehydrogenases in the viable cells leading to the formation of formazan (Boehringer Mannheim, Meylan, France). These tests are carried out in duplicate with 8 determinations per concentration tested. […]

[3] = system: Mia-Paca2 lines (human pancreatic cancer cells); assay: Anti-proliferative activity, WST1 colorimetric test, Mia-Paca2 cells; assay type: cell-based; details: 96 hours treatment, up to 10 μM, read-out: IC50 on the cell proliferation of the Mia-Paca2 lines
Procedure: as §1, §2

Row | SMILES | IC50 [1] | IC50 [2] | IC50 [3]
1 | Cc1nc2c(s1)C(=O)C=C(NCCCOCCOCCCNC1=CC(=O)c3sc(C)nc3C1=O)C2=O [Example 22, 5.5′-[ethane-1,2-diylbis(oxypropane-3,1-diylimino)]bis(2-methyl-1,3-benzothiazole-4,7-dione)] | ≤ 1 µM | ≤ 10 µM | ≤ 10 µM
2 | COc1ccc2c(c1)CCCN2C(=O)c1nc2c(s1)C(=O)C=C(NCCCN(C)CCCNC1=CC(=O)c3sc(C(=O)N4CCCc5cc(OC)ccc54)nc3C1=O)C2=O [Example 34, 5.5′-[(methylimino)bis(propane-3,1-diylimino)]bis{2-[(6-methoxy-3,4-dihydroquinolin-1(2H)-yl)carbonyl]-1,3-benzothiazole-4,7-dione}] |  | ≤ 10 µM | ≤ 10 µM
